According to US11174289B1, “Artificial intelligence designed antimicrobial peptides” (International Business Machines Corporation, priority 2020, dated 2021):

Key:
[1] = tested on: rat red blood cells (rRBCs); details: compared with MIC values, numbers only in FIG. 6
Balb/c mice = details: intraperitoneal injection, mortality monitored 14 days, compared with MIC values, numbers only in FIG. 6

Structure (SMILES) | 50% hemolysis (HC50) [1] | LD50 (Balb/c mice)
CC(C)C[C@H](NC(=O)[C@H](Cc1c[nH]c2ccccc12)NC(=O)[C@@H](NC(=O)[C@H](CC(C)C)NC(=O)[C@@H]1CCCN1C(=O)[C@@H](N)Cc1ccccc1)[C@@H](C)O)C(=O)N[C@@H](CCCCN)C(=O)N[C@@H](Cc1c[nH]c2ccccc12)C(=O)N[C@@H](Cc1c[nH]c2ccccc12)C(=O)N[C@@H](CCCCN)C(=O)N[C@@H](Cc1c[nH]c2ccccc12)C(=O)N[C@@H](CCCCN)C(=O)N[C@@H](CCCCN)C(N)=O [FK13] | much higher than their MIC values | much higher than their MIC values
CC[C@H](C)[C@H](NC(=O)[C@H](CCSC)NC(=O)[C@H](CCCCN)NC(=O)[C@H](C)NC(=O)[C@H](CCSC)NC(=O)[C@H](Cc1ccc(O)cc1)NC(=O)[C@H](CCCNC(=N)N)NC(=O)[C@@H](NC(=O)[C@H](CC(C)C)NC(=O)[C@H](CCCNC(=N)N)NC(=O)[C@H](CC(C)C)NC(=O)[C@@H](N)Cc1ccc(O)cc1)[C@@H](C)CC)C(N)=O [YI12] | much higher than their MIC values | much higher than their MIC values
